Literature values in patent US20230089557A1, “METHODS OF TREATING DLBCL USING BTK INHIBITORS AND COMBINATIONS THEREOF” (BEIGENE SWITZERLAND GMBH, priority 2020, published 2023).
Like-named read-outs stand apart in the source and are kept apart here. At least one compound was matched to its structure with a doubt left.

Tested on: R/R non-GCB DLBCL
Settings: cited from earlier work
[1] = patients with CD79B and concomitant MYD88 mutations

C=CC(=O)N1CCC[C@@H](n2nc(-c3ccc(Oc4ccccc4)cc3)c3c(N)ncnc32)C1 [ibrutinib]
responders/patients [1]: 4/5 | response rate [1]: 80% | responders/patients (patients with CD79B mutations): 5/9 | response rate (patients with CD79B mutations): 55%
